Measurements from “University of Dundee, Small-Polar-MMV Screening Library” (2021), ChEMBL document CHEMBL3988442.

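Viability assay of Plasmodium falciparum sporozoites; the read-out is not stated. The concentration is filed as 10 mM, unlikely as a test dose, so the dose is not known. The record gives no direction; compounds that gave an IC50 in retests scored well above the rest, so higher reads as lower viability. Strong results were mostly tested again. About 34,000 compounds were tested under these conditions; 0.84% (about 280) showed 50% or more at least once.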

Results are given as percent effect.
The controls that fix the scale are not given in the record; negative values are as filed.
Compounds were drawn at random from those tested, without regard to their results.
Two or more numbers in one place are separate tests of the same structure; such repeats can differ widely.

{"compound": "O=C(NCCc1ccccn1)Nc1cc(C(F)(F)F)c[nH]c1=O", "percent effect": 1.519}
{"compound": "Cc1cccnc1N1CC2(CCN(Cc3cccnc3)C2)C1.O=C(O)C(F)(F)F.O=C(O)C(F)(F)F.O=C(O)C(F)(F)F", "percent effect": 7.968}
{"compound": "O=C(O)C(F)(F)F.O=C(c1ccc[nH]1)N1CCc2c(COCC3CC3)cncc2C1", "percent effect": 17.6}
{"compound": "CN1CCCC(c2cccc(-c3cccc(C(F)(F)F)c3)n2)C1", "stereo": "centres unmarked", "percent effect": -4.714}
{"compound": "Oc1cc(C2CCCCN2Cc2cccs2)nc(-c2ccccn2)n1", "stereo": "centres unmarked", "percent effect": -10.33}
{"compound": "Cc1csc(CNC(=O)NC2CCN(c3ncccn3)CC2)n1", "percent effect": 1.029}
{"compound": "N#Cc1cc(S(N)(=O)=O)ccc1NC1CCc2cc(Cl)ccc21", "stereo": "centres unmarked", "percent effect": 5.486}
{"compound": "Cn1ncc2c1CCCC2NCc1ccc(OCc2cccnc2)cc1", "stereo": "centres unmarked", "percent effect": -6.625}
{"compound": "COCCN1CCOCC2(CCCN(Cc3cccc(F)c3)C2)C1.O=C(O)C(F)(F)F.O=C(O)C(F)(F)F", "stereo": "centres unmarked", "percent effect": 15.16}
{"compound": "O=C(O)C(F)(F)F.O=C(O)C(F)(F)F.[H][C@@]12CCCO[C@]1([H])[C@H](N(C)Cc1ccco1)CN(Cc1cccs1)C2", "percent effect": 3.65}
{"compound": "CCN(Cc1ccoc1)C(=O)c1cc(S(N)(=O)=O)c(C)o1", "percent effect": -10.01}
{"compound": "O=C(CCc1cc2n(n1)CCCNC2)N1CCN(C2CCCC2)C(=O)C1", "percent effect": 5.263}
{"compound": "Cc1nc(CN(C)C2CCN(CCCc3ccccc3)C2)no1", "stereo": "centres unmarked", "percent effect": 6.955}
{"compound": "CC(C)CCN(C)Cc1ccccc1-c1nc(C(C)C)cc(=O)[nH]1", "percent effect": -16.71}
{"compound": "Cc1c[nH]c(C2CN(Cc3ccccc3C(=O)O)CCO2)n1", "stereo": "centres unmarked", "percent effect": 4.279}
{"compound": "CN(C)C(C(=O)NCCn1cccc1)c1cccc(F)c1", "stereo": "centres unmarked", "percent effect": -7.105}
{"compound": "Fc1ccc(CN2CCCC(Cn3cncn3)C2)c2ncccc12", "stereo": "centres unmarked", "percent effect": -16.79}
{"compound": "CCOC(=O)Cc1csc(NC(=O)c2ccc(=O)[nH]n2)n1", "percent effect": 6.893}
{"compound": "O=C(O)C(F)(F)F.O=S(=O)(Cc1ccccc1)N1CCCn2cnc(CN3CCCC3)c2C1", "percent effect": -1.19}
{"compound": "Cl.O=C(NCc1ccccc1)C1=NOC2(CCNC2)C1", "stereo": "centres unmarked", "percent effect": -16.06}
{"compound": "COc1ccccc1CNC(=O)N1CCN(Cc2cc(C)on2)CC1", "percent effect": 7.537}
{"compound": "CCN1CCN(c2ccc(CNC(=O)c3ccccc3F)cn2)CC1", "percent effect": 7.558}
{"compound": "CC(C)COCC1CN(Cc2ccsc2)Cc2ncn(C)c21", "stereo": "centres unmarked", "percent effect": 11.37}
{"compound": "CN1C(=O)C(C)(C)COc2cc(NS(=O)(=O)Cc3ccccc3)ccc21", "percent effect": 0.8264}
{"compound": "Cc1ccc(-c2nc(C(=O)N3CCOCC3)cs2)c(C)c1", "percent effect": 25.65}
{"compound": "O=C(c1ccoc1)N1CCC(Nc2cccnn2)CC1", "percent effect": 4.684}
{"compound": "COc1ccc(CN2CCCCC2CNC(=O)OC(C)(C)C)cc1F", "stereo": "centres unmarked", "percent effect": -7.151}
{"compound": "O=C(CN1CCOC(CNc2cccnn2)C1)NCc1cccs1", "stereo": "centres unmarked", "percent effect": 2.949}
{"compound": "Clc1snnc1CN1CCCCC1Cn1cncn1", "stereo": "centres unmarked", "percent effect": 5.674}
{"compound": "Cc1noc(C2CCCN(C(=O)c3ccc(F)cc3F)C2)n1", "stereo": "centres unmarked", "percent effect": -6.466}
{"compound": "Cc1ccc(C)c(NC(=O)c2n[nH]c(-n3cnnc3)n2)c1", "percent effect": -9.211}
{"compound": "CCc1n[nH]c(C2CN(Cc3nccn3CC)CCO2)n1", "stereo": "centres unmarked", "percent effect": -2.081}
{"compound": "COc1cccc2ccn(CCC(=O)N3CCCC(C(=O)O)C3)c12", "stereo": "centres unmarked", "percent effect": -0.5637}
{"compound": "CC(C)NC(=O)c1noc2c1CN(Cc1cnn(C)c1)CC2", "percent effect": 6.592}
{"compound": "CN1CCC(CCc2ccnc(NC(=O)c3ccccn3)c2)CC1", "percent effect": "67.18 and 85.05 and 49.69"}
{"compound": "Cc1nn(C)cc1C1SCC(=O)Nc2c1c(O)nn2C(C)C", "stereo": "centres unmarked", "percent effect": -8.81}
{"compound": "CC(C)n1c(=O)c2ccccc2n(CCN(C)C)c1=O.Cl", "percent effect": 4.67}
{"compound": "CC(C)NC(=O)N1CCCC2(CCCCN2)C1", "stereo": "centres unmarked", "percent effect": 2.224}
{"compound": "O=C(O)C(F)(F)F.O=C(O)C(F)(F)F.[H][C@@]12CN(Cc3cccnc3)C[C@]1([H])CN(C(=O)c1cnc(C)cn1)C2", "percent effect": -17.03}
{"compound": "CO[C@H]1CN(S(=O)(=O)c2ccc(C)cc2)C[C@@]12CCCO2", "percent effect": 10.43}
{"compound": "O=C(O)C(F)(F)F.[H][C@@]12CN(Cc3ccc(F)cc3)C[C@]1([H])C(=O)N(c1ccsc1)C2", "percent effect": -7.729}
{"compound": "COCCCNC(=O)Nc1ccc(F)c(C(N)=O)c1", "percent effect": -8.845}
{"compound": "OCCn1nccc1C1CCN(Cc2nc(C3CC3)no2)CC1", "percent effect": 11.65}

The first 4 entries again:

compound	percent effect
O=C(NCCc1ccccn1)Nc1cc(C(F)(F)F)c[nH]c1=O	1.519%
Cc1cccnc1N1CC2(CCN(Cc3cccnc3)C2)C1.O=C(O)C(F)(F)F.O=C(O)C(F)(F)F.O=C(O)C(F)(F)F	7.968%
O=C(O)C(F)(F)F.O=C(c1ccc[nH]1)N1CCc2c(COCC3CC3)cncc2C1	17.6%
CN1CCCC(c2cccc(-c3cccc(C(F)(F)F)c3)n2)C1 (centres unmarked)	-4.714%